The target of assay [1] is T1, NINJ1-GFP (human) (UniProt Q92982).
T1 sequence: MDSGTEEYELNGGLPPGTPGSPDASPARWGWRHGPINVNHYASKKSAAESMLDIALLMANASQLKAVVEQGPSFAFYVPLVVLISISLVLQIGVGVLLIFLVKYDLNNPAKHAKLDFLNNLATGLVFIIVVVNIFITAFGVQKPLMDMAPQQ
Kind of assay: co-IP.

Assay [2] addresses T2, NINJ2-GFP (human) (UniProt Q9NZG7).
T2 sequence: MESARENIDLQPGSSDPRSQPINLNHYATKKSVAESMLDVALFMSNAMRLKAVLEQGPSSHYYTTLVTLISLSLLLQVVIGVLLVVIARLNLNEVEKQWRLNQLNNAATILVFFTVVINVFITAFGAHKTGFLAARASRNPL
Kind of assay: co-IP.

For assay [3], the target named is ninjurin-1 (NINJ1), endogenous mouse (mouse (endogenous in BMDMs and MEFs)) (UniProt O70131). Nature of the assay: cross-linking.

Results are given in words; binding and its absence hold for the method and conditions named. In cells and extracts the contact can be indirect. Some results given as binding are weak or reduced against the parent protein; the word gives no strength. For part of these data: Tags and fused reporters may be left off the sequences shown.

Our source for the binding values is article doi:10.1101/2024.10.29.620849.

B1: NINJ2-mCherry (protein, UniProt Q9NZG7 1-142)
chain: T2 sequence
Turning to B1, the binding result in assay [1] is reported as “binds”.

B2: NINJ1-mCherry (protein, UniProt Q92982)
chain: T1 sequence
B2: the binding result in assay [2] is on record as “binds”.

B3: ninjurin-1 (NINJ1), endogenous mouse (protein, UniProt O70131 1-152)
chain: MESGTEEYELNGDLRPGSPGSPDALPPRWGLRNRPINVNHYANKKSAAESMLDIALLMANASQLKAVVEQGNDFAFFVPLVVLISISLVLQIGVGVLLIFLVKYDLNNPAKHAKLDFLNNLATGLVFIIVVVNIFITAFGVQKPVMDVAPRQ
Take B3: in assay [3], the binding entry is “binds”.
